Results reported in doi:10.1101/2023.04.03.535356.
These are yes or no findings as the source states them, for the method shown. In cells and extracts the contact can be indirect. Some results given as binding are weak or reduced against the parent protein; the word gives no strength. Tags and fused reporters may be left off the sequences shown.

Columns and labels:
Test in all cases: co-IP
HA-tagged TLR9 = target: T1, HA-tagged TLR9 (UniProt Q9EQU3)
T1 sequence: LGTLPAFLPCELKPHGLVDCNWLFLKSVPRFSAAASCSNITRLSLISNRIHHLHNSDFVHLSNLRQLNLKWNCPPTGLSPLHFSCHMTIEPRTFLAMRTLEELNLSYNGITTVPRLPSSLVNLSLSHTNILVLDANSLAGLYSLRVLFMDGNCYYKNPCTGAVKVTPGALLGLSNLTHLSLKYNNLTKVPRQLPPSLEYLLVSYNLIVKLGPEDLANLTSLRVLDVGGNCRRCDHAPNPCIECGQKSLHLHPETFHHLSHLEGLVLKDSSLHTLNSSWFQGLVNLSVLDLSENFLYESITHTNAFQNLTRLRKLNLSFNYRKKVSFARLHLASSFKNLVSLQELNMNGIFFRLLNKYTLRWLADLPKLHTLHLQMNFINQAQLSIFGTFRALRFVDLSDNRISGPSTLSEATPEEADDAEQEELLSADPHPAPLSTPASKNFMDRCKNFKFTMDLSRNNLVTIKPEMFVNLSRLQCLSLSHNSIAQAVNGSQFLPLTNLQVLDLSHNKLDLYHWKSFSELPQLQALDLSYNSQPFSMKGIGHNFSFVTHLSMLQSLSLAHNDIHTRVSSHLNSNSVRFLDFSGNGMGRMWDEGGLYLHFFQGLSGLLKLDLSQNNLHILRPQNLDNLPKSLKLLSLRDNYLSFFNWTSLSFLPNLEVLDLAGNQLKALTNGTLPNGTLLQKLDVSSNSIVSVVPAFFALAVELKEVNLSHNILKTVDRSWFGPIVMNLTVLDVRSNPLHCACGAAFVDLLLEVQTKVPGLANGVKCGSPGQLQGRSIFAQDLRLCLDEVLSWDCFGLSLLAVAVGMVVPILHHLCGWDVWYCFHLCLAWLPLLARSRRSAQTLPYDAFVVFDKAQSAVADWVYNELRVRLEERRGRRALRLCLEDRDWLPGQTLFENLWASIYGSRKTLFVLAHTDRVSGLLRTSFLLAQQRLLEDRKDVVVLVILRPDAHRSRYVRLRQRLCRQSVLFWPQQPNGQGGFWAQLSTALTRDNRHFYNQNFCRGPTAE

[1] = target: T2, Flag-tagged Unc93b1 H412R (UniProt Q8VCW4)
T2 sequence: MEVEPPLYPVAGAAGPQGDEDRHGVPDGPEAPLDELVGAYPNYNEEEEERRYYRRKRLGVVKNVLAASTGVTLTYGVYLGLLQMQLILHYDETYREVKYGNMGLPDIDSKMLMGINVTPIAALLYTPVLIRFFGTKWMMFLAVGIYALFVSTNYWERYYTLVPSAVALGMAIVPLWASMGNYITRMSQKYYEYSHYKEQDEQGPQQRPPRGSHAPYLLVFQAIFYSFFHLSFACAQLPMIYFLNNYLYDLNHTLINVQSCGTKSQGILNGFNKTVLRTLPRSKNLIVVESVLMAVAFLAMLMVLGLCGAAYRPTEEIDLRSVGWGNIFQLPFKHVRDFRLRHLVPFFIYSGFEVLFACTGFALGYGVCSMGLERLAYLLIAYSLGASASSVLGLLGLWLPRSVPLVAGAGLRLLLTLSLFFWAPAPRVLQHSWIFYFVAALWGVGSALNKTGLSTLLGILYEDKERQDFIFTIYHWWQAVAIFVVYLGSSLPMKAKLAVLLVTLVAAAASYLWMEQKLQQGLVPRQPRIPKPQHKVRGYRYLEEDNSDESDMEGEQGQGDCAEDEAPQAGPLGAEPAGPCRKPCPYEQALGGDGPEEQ

[2] = target: T3, Flag-tagged Unc93b1 (wild type) (UniProt Q8VCW4)
T3 sequence: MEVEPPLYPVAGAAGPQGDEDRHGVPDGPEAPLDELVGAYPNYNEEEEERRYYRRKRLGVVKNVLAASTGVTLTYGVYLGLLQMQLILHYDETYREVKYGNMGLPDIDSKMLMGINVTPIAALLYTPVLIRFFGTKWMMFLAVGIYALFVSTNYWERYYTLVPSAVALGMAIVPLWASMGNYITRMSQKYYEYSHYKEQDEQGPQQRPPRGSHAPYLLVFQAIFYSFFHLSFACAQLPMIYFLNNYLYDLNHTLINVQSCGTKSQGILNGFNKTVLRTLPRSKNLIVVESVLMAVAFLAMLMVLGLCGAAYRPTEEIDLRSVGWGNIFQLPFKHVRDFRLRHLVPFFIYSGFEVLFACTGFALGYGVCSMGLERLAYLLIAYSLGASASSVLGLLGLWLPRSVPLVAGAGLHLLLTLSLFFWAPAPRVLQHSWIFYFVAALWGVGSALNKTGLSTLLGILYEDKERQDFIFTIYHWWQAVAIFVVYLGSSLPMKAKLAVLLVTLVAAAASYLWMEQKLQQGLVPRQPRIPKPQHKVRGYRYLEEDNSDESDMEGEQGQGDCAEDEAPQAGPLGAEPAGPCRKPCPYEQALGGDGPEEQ

HA-tagged TLR3 = target: T4, HA-tagged TLR3 (UniProt Q99MB1)
T4 sequence: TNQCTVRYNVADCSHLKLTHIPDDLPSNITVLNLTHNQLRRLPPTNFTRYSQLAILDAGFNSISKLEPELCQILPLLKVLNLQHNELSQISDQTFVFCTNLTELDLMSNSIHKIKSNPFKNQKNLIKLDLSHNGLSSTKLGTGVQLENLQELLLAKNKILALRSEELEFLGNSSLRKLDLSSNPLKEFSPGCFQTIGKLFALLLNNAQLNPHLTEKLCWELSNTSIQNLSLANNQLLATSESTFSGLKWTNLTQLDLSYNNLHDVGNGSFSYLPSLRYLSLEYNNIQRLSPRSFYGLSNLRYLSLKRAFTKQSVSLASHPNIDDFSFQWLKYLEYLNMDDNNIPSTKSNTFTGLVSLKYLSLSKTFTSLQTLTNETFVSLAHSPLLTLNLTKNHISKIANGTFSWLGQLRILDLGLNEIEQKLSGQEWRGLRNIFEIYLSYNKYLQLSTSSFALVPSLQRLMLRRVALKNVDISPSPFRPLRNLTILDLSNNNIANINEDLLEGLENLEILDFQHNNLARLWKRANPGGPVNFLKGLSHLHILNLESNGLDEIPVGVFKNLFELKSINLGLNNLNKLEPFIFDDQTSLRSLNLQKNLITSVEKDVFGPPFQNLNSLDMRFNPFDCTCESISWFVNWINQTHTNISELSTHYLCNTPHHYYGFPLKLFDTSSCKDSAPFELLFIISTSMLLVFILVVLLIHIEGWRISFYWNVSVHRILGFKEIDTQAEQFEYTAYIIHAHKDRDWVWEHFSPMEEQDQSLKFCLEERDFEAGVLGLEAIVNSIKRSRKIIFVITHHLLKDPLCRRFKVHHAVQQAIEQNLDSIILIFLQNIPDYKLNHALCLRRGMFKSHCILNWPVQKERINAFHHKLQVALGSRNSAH

binding (HA-tagged TLR9): no binding
binding [1]: no binding
binding [2]: binds
binding (HA-tagged TLR3): no binding
B1: endogenous Arl8b (protein, UniProt Q9CQW2 1-186)
chain: MLALISRLLDWFRSLFWKEEMELTLVGLQYSGKTTFVNVIASGQFSEDMIPTVGFNMRKVTKGNVTIKIWDIGGQPRFRSMWERYCRGVNAIVYMIDAADREKIEASRNELHNLLDKPQLQGIPVLVLGNKRDLPNALDEKQLIEKMNLSAIQDREICCYSISCKEKDNIDITLQWLIQHSKSRRS
